Consider 69 compounds from the supplement of paper PMC8104966.

Several values for one entry are separate records, joined by “and”; a condition that tells them apart may be missing. Equal values may be shown once. The list shows a part of the results. This data set is noisy: repeats of one test often differ as much as different tests do.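 U2OS cells expressing ACE2 were combined with U2OS cells expressing full-length spike, and imaging quantified fusion as the fraction of nuclei displaying both cell types' fluorescent markers. Non-toxic compounds with a fusion z-score under -3, i.e., over three standard deviations below the plate's DMSO wells, are called inhibitory hits.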

This assay concerns U2OS ACE2 x SARS-CoV-2 spike co-culture. Kind of assay: cell-cell fusion (fraction fused) z-score vs plate DMSO control; higher = more fusion. Conditions: 30 µM; 5 h; toxicity class: non-toxic, passed QC.
Take `O=C1CCC[C@H]2[C@@H]3CCC[N+]4([O-])CCC[C@H](CN12)[C@H]34` (some centres undefined): the “cell-cell fusion (z-score)” value was inactive: 1.75.
As to `C/C(O)=C(\C#N)C(=O)Nc1ccc(C(F)(F)F)cc1` [Teriflunomide], the “cell-cell fusion (z-score)” value was inactive: 3.23.
As to `Br.C=CCN1CCc2c(cc(O)c(O)c2Cl)C(c2ccccc2)C1` (racemic) [(±)-Chloro-APB hydrobromide], the “cell-cell fusion (z-score)” value was inactive: 1.2.
In the case of `CO[C@H]1/C=C/O[C@@]2(C)Oc3c(C)c(O)c4c(O)c(c(/C=N/N5CCN(C6CCCC6)CC5)c(O)c4c3C2=O)NC(=O)/C(C)=C\C=C\[C@H](C)[C@H](O)[C@@H](C)[C@@H](O)[C@@H](C)[C@H](OC(C)=O)[C@@H]1C` [Rifapentine], the “cell-cell fusion (z-score)” value was active: -7.
On to `COc1ccc(OC)c(C(O)C(C)N)c1.Cl` (centres undefined), for which the “cell-cell fusion (z-score)” value was inactive: 1.09.
For the compound `COc1ccc(OC)c(C(O)C(C)N)c1.Cl` (centres undefined) [Methoxamine hydrochloride], the “cell-cell fusion (z-score)” value was inactive: 3.04.
As to `Oc1cccc2[nH]ccc12`, the “cell-cell fusion (z-score)” value was inactive: 2.21.
On to `CCOC(=O)[C@H](CC(C)C)NC(=O)[C@@H](NC(=O)[C@H](Cc1c[nH]c2ccccc12)NC(=O)[C@@H]1CCCN1C(=O)[C@H](CCCCN)NC[C@@H](N)CCCCN)C(C)(C)C.Cl.Cl.Cl.Cl.O`, for which the “cell-cell fusion (z-score)” value was inactive: 2.53.
Regarding `NC(COCc1ccccc1)C(=O)O` (centres undefined), the “cell-cell fusion (z-score)” value is inactive: 1.59.
Take `CC1(O)CCC(C(C)(C)O)CC1.O` (centres undefined): the “cell-cell fusion (z-score)” value is inactive: 2.04.
The value for `CCC(=O)NCC[C@@H]1CCc2ccc3c(c21)CCO3` was inactive: 2.11; that for `CCN(CC)C(=S)SSC(=S)N(CC)CC` [Disulfiram (Antabuse)] was inactive: 1.12.
Turning to `O=C(NCc1c(F)cc(F)cc1F)c1cn2c(c(O)c1=O)C(=O)N1[C@H]3CC[C@H](C3)O[C@@H]1C2` [Bictegravir], the “cell-cell fusion (z-score)” value is inactive: 2.81.
Regarding `NC(=O)NO` [Hydroxyurea], the “cell-cell fusion (z-score)” value was inactive: 2.78.
As for `NC(=O)NO`, the “cell-cell fusion (z-score)” value is inactive: 0.421.
Under `CCC(C)N(C)C(=O)c1cc2ccccc2c(-c2ccccc2Cl)n1` (centres undefined) stands inactive: 2.94.
As for `Cn1cnc(N)c2ncnc1-2` [3-Methyladenine], the “cell-cell fusion (z-score)” value is inactive: 1.45.
On to `CC(O)c1cc(C(=O)N[C@@H](C)Cn2ccc(-c3ccc(C#N)c(Cl)c3)n2)n[nH]1` (some centres undefined) [Darolutamide], for which the “cell-cell fusion (z-score)” value is inactive: 1.27.
For `CN(Cc1cc(Br)cc(Br)c1N)C1CCCCC1.Cl`, the “cell-cell fusion (z-score)” value is inactive: 3.17.
Take `CCCN(CCC)C1Cc2cc(OC)c(OC)cc2C1.O=C(O)/C=C\C(=O)O`: the “cell-cell fusion (z-score)” value was inactive: 2.16.
The value for `Cl.NC(N)=N/C(N)=N/CCc1ccccc1` was inactive: 2.35.
Take `CC(C)(C)CC(C)(C)c1cc(Cc2cc(C(C)(C)CC(C)(C)C)cc(-n3nc4ccccc4n3)c2O)c(O)c(-n2nc3ccccc3n2)c1.NCCO.NCCO`: the “cell-cell fusion (z-score)” value was inactive: 0.285.
Take `Cc1[nH]c(=O)c(C#N)cc1-c1ccncc1` [Milrinone]: the “cell-cell fusion (z-score)” value was inactive: 2.31.
The value for `Cc1[nH]c(=O)c(C#N)cc1-c1ccncc1` was inactive: 3.24; that for `C[C@]1(O)C[C@@H](c2nc(-c3ccc4ccc(-c5ccccc5)nc4c3)c3c(N)nccn32)C1` [Linsitinib (OSI-906)] was inactive: 2.57.
In the case of `C[C@]1(O)C[C@@H](c2nc(-c3ccc4ccc(-c5ccccc5)nc4c3)c3c(N)nccn32)C1` [OSI-906 (Linsitinib)], the “cell-cell fusion (z-score)” value was inactive: 2.79.
`NCCC(O)(P(=O)([O-])O)P(=O)([O-])O.[Na+].[Na+]` [Pamidronate disodium salt]: the “cell-cell fusion (z-score)” value was inactive: 2.99.
As to `OCCN1C[C@@H](O)[C@@H](O)C(O)C1CO` (some centres undefined), the “cell-cell fusion (z-score)” value is inactive: 1.95.
Turning to `O=C(O)CNC(=O)C(CS)Cc1ccccc1` (racemic) [DL-Thiorphan], the “cell-cell fusion (z-score)” value is inactive: 0.519.
Take `CNc1ccccc1C(=O)O`: the “cell-cell fusion (z-score)” value was inactive: 2.39.
With `CC(C)c1cccc(C(C)C)c1O` [Propofol], the “cell-cell fusion (z-score)” value was inactive: 2.44.
As to `CC[C@H]1OC(=O)[C@H](C)C(O[C@H]2C[C@@](C)(OC)[C@@H](O)[C@H](C)O2)[C@H](C)[C@@H](OC2O[C@H](C)C[C@H](N(C)C)[C@H]2O)[C@](C)(O)C[C@@H](C)CN(C)[C@H](C)[C@@H](O)[C@]1(C)O.O.O` (some centres undefined) [Azithromycin dihydrate], the “cell-cell fusion (z-score)” value is inactive: 1.77.
With `C=CC[C@H](N)C(=O)O` [L-allylglycine], the “cell-cell fusion (z-score)” value is inactive: 2.45.
With `Nc1ncn([C@@H]2O[C@H](CO)[C@@H](O)[C@@H]2O)c(=O)n1` [Azacitidine (Vidaza)], the “cell-cell fusion (z-score)” value was inactive: 0.913.
For `Cc1cn([C@H]2C=C[C@@H](CO)O2)c(=O)[nH]c1=O` [2',3'-didehydro-3'-deoxythymidine], the “cell-cell fusion (z-score)” value is inactive: 3.36.
In the case of `Cc1cn([C@H]2C=C[C@@H](CO)O2)c(=O)[nH]c1=O`, the “cell-cell fusion (z-score)” value was inactive: -1.37.
Take `O=C(NCCO[N+](=O)[O-])c1cccnc1`: the “cell-cell fusion (z-score)” value is inactive: 1.05.
Under `COc1ccccc1OCC(O)COC(N)=O` (centres undefined) [Methocarbamol] stands inactive: 2.38; under `COc1cccc(OC)c1-c1cc(C(=O)NC2(C(=O)O)C3CC4CC(C3)CC2C4)nn1-c1ccc(C(=O)N(C)CCCN(C)C)cc1C(C)C.Cl` (centres undefined), inactive: 2.69.
For `CCN1CCCC1CNC(=O)c1cc(S(N)(=O)=O)ccc1OC` (racemic) [(±)-Sulpiride], the “cell-cell fusion (z-score)” value was inactive: -0.478.
As to `CC(=O)OCC(=O)[C@@]1(O)[C@@H](C)CC2C3CCC4=CC(=O)C=C[C@]4(C)[C@@]3(F)[C@@H](O)C[C@@]21C` (some centres undefined), the “cell-cell fusion (z-score)” value is inactive: 0.312.
Consider `NC(N)=Nc1nc(CSCC/C(N)=N\S(N)(=O)=O)cs1`, for which the “cell-cell fusion (z-score)” value was inactive: 3.76.
Take `CN1CCC(=C2c3ccccc3CCc3cccnc32)CC1.O=C(O)/C=C\C(=O)O`: the “cell-cell fusion (z-score)” value is inactive: 0.318.
In the case of `Cl.N=C(N)NC(=N)Nc1cccc(Cl)c1` [1-(m-Chlorophenyl)-biguanide hydrochloride], the “cell-cell fusion (z-score)” value was inactive: -0.801.
Regarding `Cl.N#Cc1ccc2[nH]cc(CCCCN3CCN(c4ccc5oc(C(N)=O)cc5c4)CC3)c2c1`, the “cell-cell fusion (z-score)” value was inactive: 1.64.
Regarding `CN1CCCCC1c1ccc(-c2cccnc2)nc1.Cl` (centres undefined), the “cell-cell fusion (z-score)” value was inactive: 0.885.
For the compound `COc1ccccc1CN[C@@H]1CCCN[C@@H]1c1ccccc1.Cl.Cl.O`, the “cell-cell fusion (z-score)” value is inactive: 1.73 and inactive: 2.79.
The value for `C[C@H]1CN(C[C@H](Cc2ccccc2)C(=O)NCC(=O)O)CC[C@@]1(C)c1cccc(O)c1` [Alvimopan] was inactive: 1.78; that for `C=C1c2c(Cl)ccc(O)c2C(=O)C2=C(O)[C@]3(O)C(=O)C(C(N)=O)=C(O)[C@@H](N(C)C)[C@@H]3[C@@H](O)[C@H]12.O=C(O)c1cc(S(=O)(=O)O)ccc1O` [Meclocycline sulfosalicylate salt] was inactive: 0.0644.
Consider `COc1cc2occ(-c3ccc(OC)c(OC)c3OC)c(=O)c2cc1OC`, for which the “cell-cell fusion (z-score)” value was inactive: 1.97.
As for `CCN(CC)CCOC(=O)C(c1ccccc1)c1ccccc1.Cl`, the “cell-cell fusion (z-score)” value was inactive: 1.58.
Under `C[C@@H]1C/C=C/C=C/C=C/C=C/[C@H](O[C@@H]2O[C@H](C)[C@@H](O)[C@H](N)[C@@H]2O)C[C@@H]2O[C@](O)(C[C@@H](O)C[C@H]3O[C@@H]3/C=C/C(=O)O1)C[C@H](O)[C@H]2C(=O)O` [Pimaricin] stands inactive: 1.72; under `NC[C@H]1CC[C@H](C(=O)O)CC1` [Amstat], inactive: 1.9; under `CC(C)=CCc1c2c(c3occ(-c4ccc(O)c(O)c4)c(=O)c3c1O)C=CC(C)(C)O2`, inactive: 2.91.
With `O=C(Nc1cc(C(F)(F)F)cc(C(F)(F)F)c1)c1cc(Cl)ccc1O`, the “cell-cell fusion (z-score)” value was inactive: 1.8.
Under `CC(C)C[C@H]1C(=O)N2CCC[C@H]2[C@]2(O)O[C@](NC(=O)[C@@H]3C=C4c5cccc6[nH]c(Br)c(c56)C[C@H]4N(C)C3)(C(C)C)C(=O)N12.CS(=O)(=O)O` [Bromocriptine mesylate] stands inactive: -2; under `Br.NC(=O)C(c1ccccc1)(c1ccccc1)[C@@H]1CCN(CCc2ccc3c(c2)CCO3)C1` [Darifenacin HBr], inactive: 1.92.
As to `C#C[C@]1(O)CCC2C3CCc4cc(OC5CCCC5)ccc4C3CC[C@@]21C` (some centres undefined), the “cell-cell fusion (z-score)” value was inactive: 1.7.
In the case of `CCCCCCCCCCCC1=C(O)C(=O)C=C(O)C1=O` [Embelin], the “cell-cell fusion (z-score)” value is inactive: 1.72.
On to `Cc1nc(-c2ccc(OCC(C)C)c(C#N)c2)sc1C(=O)O` [Febuxostat], for which the “cell-cell fusion (z-score)” value was inactive: 1.62.
Under `CN1CCC(=C2c3ccccc3CCc3cccnc32)CC1.O=C(O)/C=C\C(=O)O.O=C(O)/C=C\C(=O)O` [Azatadine Maleate] stands inactive: 2.12; under `COc1cc(C(=O)OCCC[NH+]2CCC[NH+](CCCOC(=O)c3cc(OC)c(OC)c(OC)c3)CC2)cc(OC)c1OC.[Cl-].[Cl-]` [Dilazep hydrochloride], inactive: 1.89.
The value for `CN1CCc2cc3c(cc2C1O)OCO3.Cl` (centres undefined) was inactive: 2.68; that for `Nc1nc2ccc(OC(F)(F)F)cc2s1` [Riluzole] was inactive: -0.245; that for `O=C1C2C=CC=CC2=NC(=S)N1CCN1CCC(=C(c2ccc(F)cc2)c2ccc(F)cc2)CC1` (centres undefined) [Diacylglycerol Kinase Inhibitor II] was inactive: 0.102.
Under `CC(=O)OCC(=O)[C@@]1(O)CCC2C3CCC4=CC(=O)CC[C@]4(C)C3[C@@H](O)C[C@@]21C` (some centres undefined) stands inactive: 0.567; under `Oc1c(I)cc(Cl)c2cccnc12` [Clioquinol], inactive: -0.331; under `O=c1cc(-c2ccccc2)oc2cc(O)c(O)c(O)c12`, inactive: 2.56.
As to `CC[N+](CC)(CC)CC(=O)Nc1c(C)cccc1C.[Br-]` [Lidocaine N-ethyl bromide quaternary salt], the “cell-cell fusion (z-score)” value is inactive: 1.98.
